The record followed here is article PMC7617541.

These are yes or no findings as the source states them, for the method shown. Binding seen in cells or lysates may run through a third protein. A yes stands for co-enrichment or nearness to the bait. Other partners may have been found. Sequences can lack the tags named with a protein.

The target of this experiment is T1, FL-pOTC-TST (full-length precursor of human ornithine transcarbamylase with a C-terminal twin-strep tag) (human) (UniProt P00480).
T1 sequence: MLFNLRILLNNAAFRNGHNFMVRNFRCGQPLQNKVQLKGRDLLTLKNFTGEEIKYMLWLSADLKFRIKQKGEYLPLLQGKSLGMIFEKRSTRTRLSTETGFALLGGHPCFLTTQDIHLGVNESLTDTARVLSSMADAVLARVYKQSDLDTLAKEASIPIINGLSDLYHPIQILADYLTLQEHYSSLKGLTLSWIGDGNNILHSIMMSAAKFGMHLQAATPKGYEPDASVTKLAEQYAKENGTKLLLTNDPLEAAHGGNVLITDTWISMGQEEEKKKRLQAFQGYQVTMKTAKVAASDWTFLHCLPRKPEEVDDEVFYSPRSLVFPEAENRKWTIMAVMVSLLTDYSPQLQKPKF
In words: affinity purification with mass spectrometry; pOTC-TST translated in rabbit reticulocyte lysate (1 ml), purified under native conditions on StrepTactin resin via the TST; SDS-PAGE (SYPRO Ruby) and on-bead trypsin digestion with LC/MS-MS; GFP-TST as negative control.

B1: St13 (also known as Hip; rabbit reticulocyte lysate) (protein, UniProt G1SXL3 1-369)
chain: MDPRKVNELRAFVKLCKQDPSVLHTEEMRFLREWVESMGGKVPPATHKAKPEENIKEEKTDSKKAEETIQTDEPSSEESDLEIDNEGVIEPDTDAPQEMGDENVEITEEMMDQANEKKGAAIEALNDGELQKAIDLFTDAIKLNPRLAILYAKRASVFVKLQKPNAAIRDCDRAIDINPDSAQPYKWRGKAHRLLGHWEEAAHDLALACKLDYDEDASAVLKEVQPRAQKIAEHRRKYERKREEREIKERMERVKKAREEHERAQREEEARRQSGAQYGSFPGGFPGGMPGNFPGGMPGMGGAMPGMAGMPGLNEILSDPEVLAAMQDPEVMVAFQDVAQNPANMSKYQSNPKVMNLISKLSAKFGGQA
On to B1, for which the binding entry is recorded as “binds”.
